In the assay the target is PPARγ, endogenous in mouse hippocampus (mouse (endogenous in hippocampus)) (UniProt P37238). The assay is described as follows: co-IP; whole-cell lysates from the mouse hippocampus, endogenous proteins, immunoblot. For orientation: In western blotting, separated proteins are transferred to a membrane and probed.

By UniProt entry, the sequences of proteins in these tests, tags left out.
UniProt P37238: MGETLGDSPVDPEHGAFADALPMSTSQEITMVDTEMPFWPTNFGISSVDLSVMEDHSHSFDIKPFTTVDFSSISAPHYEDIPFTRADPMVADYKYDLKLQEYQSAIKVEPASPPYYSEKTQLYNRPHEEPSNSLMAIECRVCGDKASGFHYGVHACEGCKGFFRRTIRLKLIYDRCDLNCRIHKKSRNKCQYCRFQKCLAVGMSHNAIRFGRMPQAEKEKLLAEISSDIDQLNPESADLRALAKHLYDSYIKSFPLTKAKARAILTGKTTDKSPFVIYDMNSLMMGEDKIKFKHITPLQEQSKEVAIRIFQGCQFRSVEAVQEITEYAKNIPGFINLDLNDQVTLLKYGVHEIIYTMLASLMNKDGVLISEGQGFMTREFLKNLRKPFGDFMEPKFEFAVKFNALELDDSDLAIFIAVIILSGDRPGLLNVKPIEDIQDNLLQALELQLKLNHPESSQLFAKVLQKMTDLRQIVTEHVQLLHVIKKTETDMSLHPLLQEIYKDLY
UniProt Q9QXG4: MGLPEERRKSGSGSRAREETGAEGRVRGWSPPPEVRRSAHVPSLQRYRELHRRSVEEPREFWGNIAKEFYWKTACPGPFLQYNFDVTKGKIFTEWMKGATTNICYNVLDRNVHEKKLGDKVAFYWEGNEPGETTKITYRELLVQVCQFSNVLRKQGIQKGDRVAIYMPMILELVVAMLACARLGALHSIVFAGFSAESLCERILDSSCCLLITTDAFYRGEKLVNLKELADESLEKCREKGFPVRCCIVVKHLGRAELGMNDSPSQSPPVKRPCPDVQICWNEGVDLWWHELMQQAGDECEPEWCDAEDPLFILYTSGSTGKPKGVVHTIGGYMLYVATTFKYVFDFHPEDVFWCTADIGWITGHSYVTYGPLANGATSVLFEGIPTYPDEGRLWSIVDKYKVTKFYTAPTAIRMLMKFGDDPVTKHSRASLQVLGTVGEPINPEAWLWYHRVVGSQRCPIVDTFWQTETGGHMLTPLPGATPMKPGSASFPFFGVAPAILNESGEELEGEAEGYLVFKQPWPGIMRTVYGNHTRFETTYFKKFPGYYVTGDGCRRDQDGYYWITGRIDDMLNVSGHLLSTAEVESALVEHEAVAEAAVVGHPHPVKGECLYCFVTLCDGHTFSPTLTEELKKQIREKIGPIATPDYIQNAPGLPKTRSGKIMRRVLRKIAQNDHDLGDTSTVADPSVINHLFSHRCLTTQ

Binding data for one substance are collected here from paper PMC11210491.

No constants are given. Whether binding was seen depends on the method and setting. Binding seen in cells or lysates may run through a third protein. Some binding calls cover weakened binding; strength is not graded here.

As to “ACSS2, endogenous in mouse hippocampus (from UniProt Q9QXG4 1-701) (enzyme)”, the binding entry is reported as “binds”.
